The supplement of paper PMC10849652
Some of the results follow.

Sequences of proteins named here, by UniProt entry; tags and fusion partners are left off. A change or cut given only in a name is not applied to a line headed by its entry.
UniProt Q6VEQ5: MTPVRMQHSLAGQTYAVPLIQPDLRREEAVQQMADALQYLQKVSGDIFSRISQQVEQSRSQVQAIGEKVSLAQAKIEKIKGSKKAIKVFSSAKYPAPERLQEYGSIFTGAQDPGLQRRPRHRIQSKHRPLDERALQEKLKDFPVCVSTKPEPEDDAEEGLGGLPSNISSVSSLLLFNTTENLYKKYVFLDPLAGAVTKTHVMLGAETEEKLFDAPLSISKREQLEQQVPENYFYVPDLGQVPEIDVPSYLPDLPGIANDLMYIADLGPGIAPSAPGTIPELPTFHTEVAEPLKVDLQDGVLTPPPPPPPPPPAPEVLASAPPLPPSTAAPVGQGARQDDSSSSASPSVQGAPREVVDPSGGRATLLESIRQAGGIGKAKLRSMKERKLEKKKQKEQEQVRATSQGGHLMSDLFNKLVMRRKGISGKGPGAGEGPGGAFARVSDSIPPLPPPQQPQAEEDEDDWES
UniProt Q9BV38: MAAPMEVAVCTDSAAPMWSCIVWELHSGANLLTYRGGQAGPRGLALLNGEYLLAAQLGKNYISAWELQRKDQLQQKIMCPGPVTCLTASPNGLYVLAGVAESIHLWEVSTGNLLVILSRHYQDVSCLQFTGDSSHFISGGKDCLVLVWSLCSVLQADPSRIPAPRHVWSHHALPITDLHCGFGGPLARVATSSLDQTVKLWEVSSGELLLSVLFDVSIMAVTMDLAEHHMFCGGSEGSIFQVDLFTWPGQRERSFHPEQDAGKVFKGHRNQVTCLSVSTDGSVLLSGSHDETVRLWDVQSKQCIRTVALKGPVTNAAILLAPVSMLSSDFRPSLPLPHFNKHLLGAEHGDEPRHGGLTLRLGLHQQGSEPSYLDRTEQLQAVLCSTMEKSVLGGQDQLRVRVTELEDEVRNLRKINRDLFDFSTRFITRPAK
UniProt Q9Y6W5, whole entry, looked up: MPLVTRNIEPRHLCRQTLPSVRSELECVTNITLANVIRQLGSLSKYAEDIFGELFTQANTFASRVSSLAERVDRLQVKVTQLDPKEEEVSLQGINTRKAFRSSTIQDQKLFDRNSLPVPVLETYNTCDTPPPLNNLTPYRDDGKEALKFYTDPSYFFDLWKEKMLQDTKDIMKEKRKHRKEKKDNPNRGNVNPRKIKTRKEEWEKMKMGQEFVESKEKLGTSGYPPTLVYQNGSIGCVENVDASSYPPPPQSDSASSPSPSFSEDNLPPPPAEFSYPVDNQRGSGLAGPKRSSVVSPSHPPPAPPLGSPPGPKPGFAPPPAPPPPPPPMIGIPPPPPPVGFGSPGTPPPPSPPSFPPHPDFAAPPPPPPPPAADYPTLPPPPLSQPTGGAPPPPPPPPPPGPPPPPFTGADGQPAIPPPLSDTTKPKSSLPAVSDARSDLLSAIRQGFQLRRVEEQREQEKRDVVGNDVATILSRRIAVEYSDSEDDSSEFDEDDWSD
UniProt A3KMH1: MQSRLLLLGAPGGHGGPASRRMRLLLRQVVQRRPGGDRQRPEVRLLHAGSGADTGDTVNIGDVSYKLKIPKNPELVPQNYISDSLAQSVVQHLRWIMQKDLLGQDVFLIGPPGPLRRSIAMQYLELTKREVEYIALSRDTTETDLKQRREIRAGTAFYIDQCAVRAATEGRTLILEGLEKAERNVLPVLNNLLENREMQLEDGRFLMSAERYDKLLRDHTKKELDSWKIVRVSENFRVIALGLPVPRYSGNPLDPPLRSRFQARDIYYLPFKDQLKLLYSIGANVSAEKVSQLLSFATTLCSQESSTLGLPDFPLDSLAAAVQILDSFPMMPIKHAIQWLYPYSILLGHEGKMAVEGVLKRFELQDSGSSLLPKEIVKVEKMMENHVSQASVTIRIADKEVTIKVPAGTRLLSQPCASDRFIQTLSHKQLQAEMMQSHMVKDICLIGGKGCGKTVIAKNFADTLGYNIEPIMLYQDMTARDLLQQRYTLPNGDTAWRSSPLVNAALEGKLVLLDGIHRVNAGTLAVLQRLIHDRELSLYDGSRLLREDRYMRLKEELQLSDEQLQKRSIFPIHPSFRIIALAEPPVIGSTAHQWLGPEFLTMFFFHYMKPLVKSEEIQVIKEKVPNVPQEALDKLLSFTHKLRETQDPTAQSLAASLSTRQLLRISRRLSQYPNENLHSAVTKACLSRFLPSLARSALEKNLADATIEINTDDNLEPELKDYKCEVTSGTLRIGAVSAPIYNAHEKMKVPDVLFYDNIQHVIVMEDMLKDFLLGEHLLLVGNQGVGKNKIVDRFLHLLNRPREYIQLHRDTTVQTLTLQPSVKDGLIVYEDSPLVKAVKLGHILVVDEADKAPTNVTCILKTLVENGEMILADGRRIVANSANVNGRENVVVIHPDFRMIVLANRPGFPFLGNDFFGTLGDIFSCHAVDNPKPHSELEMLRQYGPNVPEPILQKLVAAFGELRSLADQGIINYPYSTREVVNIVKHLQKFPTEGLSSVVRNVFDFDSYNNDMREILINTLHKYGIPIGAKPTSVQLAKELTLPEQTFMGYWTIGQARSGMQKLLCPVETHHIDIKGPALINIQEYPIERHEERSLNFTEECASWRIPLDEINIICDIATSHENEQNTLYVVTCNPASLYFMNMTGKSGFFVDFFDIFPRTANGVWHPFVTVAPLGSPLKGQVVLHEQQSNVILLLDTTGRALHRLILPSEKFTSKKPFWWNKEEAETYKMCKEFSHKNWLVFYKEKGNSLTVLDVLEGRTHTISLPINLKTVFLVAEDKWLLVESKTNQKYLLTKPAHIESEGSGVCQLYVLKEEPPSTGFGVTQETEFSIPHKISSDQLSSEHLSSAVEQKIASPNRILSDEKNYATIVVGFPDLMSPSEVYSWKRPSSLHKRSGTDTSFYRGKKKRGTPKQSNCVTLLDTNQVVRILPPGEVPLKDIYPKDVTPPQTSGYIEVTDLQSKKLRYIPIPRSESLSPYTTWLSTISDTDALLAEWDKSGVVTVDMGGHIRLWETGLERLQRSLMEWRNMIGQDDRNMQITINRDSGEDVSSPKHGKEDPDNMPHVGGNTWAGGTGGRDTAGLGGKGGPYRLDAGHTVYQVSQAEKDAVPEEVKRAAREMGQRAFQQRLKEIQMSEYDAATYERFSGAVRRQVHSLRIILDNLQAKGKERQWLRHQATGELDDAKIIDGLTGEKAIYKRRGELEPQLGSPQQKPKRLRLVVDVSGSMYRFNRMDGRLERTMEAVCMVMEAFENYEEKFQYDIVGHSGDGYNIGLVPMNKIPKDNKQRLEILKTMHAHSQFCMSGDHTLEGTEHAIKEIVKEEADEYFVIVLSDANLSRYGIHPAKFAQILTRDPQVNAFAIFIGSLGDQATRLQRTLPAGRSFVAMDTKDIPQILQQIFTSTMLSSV
UniProt P23381: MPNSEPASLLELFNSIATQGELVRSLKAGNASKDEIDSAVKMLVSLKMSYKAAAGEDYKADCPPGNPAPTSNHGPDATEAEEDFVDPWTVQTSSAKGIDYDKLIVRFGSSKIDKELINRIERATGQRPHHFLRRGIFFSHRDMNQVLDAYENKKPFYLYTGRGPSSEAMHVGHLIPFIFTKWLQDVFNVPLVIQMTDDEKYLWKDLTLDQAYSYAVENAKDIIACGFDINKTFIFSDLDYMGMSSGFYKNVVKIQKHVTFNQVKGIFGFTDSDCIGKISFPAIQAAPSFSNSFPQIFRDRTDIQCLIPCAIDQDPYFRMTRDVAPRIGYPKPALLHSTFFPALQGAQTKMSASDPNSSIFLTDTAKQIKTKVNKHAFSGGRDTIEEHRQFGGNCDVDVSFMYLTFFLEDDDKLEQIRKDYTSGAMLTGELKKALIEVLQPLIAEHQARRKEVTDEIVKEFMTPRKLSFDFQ
UniProt Q96S15: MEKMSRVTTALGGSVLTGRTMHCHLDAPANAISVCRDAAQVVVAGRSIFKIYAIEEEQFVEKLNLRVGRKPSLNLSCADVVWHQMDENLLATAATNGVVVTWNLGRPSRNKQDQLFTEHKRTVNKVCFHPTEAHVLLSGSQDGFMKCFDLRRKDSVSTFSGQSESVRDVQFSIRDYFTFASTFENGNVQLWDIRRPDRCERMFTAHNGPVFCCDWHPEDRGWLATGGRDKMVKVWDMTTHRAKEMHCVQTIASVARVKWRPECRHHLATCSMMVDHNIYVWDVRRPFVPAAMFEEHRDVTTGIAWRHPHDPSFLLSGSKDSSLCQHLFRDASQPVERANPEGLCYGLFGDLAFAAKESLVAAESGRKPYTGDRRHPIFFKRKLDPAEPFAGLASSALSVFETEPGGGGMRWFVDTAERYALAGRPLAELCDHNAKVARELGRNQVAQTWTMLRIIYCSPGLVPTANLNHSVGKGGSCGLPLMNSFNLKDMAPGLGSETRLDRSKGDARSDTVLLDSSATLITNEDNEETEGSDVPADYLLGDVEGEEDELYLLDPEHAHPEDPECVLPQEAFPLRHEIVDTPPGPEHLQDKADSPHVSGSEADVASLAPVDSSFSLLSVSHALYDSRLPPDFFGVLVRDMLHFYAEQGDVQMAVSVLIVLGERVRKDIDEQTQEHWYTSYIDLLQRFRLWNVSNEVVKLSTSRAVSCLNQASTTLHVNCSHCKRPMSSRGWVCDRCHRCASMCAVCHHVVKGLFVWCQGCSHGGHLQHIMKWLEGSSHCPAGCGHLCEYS
UniProt Q9BTA9: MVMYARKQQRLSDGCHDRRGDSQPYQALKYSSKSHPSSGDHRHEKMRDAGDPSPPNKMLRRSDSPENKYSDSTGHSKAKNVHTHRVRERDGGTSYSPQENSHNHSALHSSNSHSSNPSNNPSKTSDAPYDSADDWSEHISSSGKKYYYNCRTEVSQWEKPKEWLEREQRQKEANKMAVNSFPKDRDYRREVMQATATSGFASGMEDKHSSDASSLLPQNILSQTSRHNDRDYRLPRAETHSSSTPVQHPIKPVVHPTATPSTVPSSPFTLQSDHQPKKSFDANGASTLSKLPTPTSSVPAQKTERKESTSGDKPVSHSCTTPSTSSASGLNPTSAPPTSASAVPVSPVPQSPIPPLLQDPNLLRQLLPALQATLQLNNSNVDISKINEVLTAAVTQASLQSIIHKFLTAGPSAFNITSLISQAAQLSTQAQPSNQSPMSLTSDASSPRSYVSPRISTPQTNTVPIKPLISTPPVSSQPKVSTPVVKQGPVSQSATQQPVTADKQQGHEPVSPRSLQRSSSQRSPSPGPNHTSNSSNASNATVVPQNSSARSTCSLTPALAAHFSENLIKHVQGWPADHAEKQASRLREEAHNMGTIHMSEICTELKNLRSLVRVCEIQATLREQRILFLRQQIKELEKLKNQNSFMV
UniProt Q5JSH3: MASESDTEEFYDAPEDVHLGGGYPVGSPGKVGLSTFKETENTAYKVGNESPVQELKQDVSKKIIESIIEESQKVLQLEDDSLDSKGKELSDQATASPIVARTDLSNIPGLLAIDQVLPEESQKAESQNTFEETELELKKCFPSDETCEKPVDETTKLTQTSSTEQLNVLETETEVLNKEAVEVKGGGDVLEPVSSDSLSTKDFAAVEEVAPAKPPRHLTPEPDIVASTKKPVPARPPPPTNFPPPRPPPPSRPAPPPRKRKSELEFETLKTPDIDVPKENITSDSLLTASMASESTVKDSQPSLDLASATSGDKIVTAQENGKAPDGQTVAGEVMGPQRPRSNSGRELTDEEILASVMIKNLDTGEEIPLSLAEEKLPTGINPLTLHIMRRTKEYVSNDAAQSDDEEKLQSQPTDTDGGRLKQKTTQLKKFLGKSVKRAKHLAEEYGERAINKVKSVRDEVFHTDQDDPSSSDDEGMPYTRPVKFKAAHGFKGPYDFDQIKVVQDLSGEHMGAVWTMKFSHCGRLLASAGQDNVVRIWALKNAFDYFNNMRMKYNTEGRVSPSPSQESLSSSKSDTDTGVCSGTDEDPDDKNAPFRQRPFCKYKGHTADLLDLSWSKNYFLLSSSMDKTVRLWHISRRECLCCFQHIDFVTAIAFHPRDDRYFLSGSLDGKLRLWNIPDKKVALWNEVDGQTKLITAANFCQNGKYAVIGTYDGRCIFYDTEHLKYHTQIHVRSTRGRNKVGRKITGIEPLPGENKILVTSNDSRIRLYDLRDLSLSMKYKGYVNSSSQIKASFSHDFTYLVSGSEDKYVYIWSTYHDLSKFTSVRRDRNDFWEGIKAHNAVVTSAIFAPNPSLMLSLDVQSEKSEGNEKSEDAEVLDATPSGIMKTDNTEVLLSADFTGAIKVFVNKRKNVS

Tests used:
Assay in all cases: log2 fold change, soluble protein after heating vs DMSO (PISA); higher = thermal stabilisation; K562 lysate, 10 uM; active = over 0.2 and 3.5 SD of the protein, either way, in both replicates (recomputed)
nilotinib = compound: Cc1cn(-c2cc(NC(=O)c3ccc(C)c(Nc4nccc(-c5cccnc5)n4)c3)cc(C(F)(F)F)c2)cn1 [nilotinib]
Summary of the method: (§1)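 Dounce homogenisation of K562 pellets in PBS pH 7.4 with 1 mM MgCl2 produced a crude extract, used at 1 mg/mL protein. Exposure to 10 μM compound lasted 30 min, and aliquots were then heated for 3 min across 48°C-58°C, pooled and brought to 0.5% NP-40 at 4°C. The supernatant after 21,000xg for 90 min was quantified by TMTpro 16plex LC-MS/MS with channel sums equalised. Duplicate values are given as log-two fold change in thermal stability relative to solvent controls.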

[1] = compound: Cc1nc(Nc2n[nH]c3c2CN(C(=O)N[C@H](CN(C)C)c2ccccc2)C3(C)C)c2sccc2n1
Summary of the method: as §1

dasatinib = compound: Cc1nc(Nc2ncc(C(=O)Nc3c(C)cccc3Cl)s2)cc(N2CCN(CCO)CC2)n1 [dasatinib]
Summary of the method: as §1

[2] = compound: Cc1ncc(-c2ccnc(Nc3ccc(S(C)(=O)=O)cc3)n2)n1C(C)C
Summary of the method: as §1

[3] = compound: Cn1cc(-c2ccc3c(c2)CCN3C(=O)Cc2cccc(C(F)(F)F)c2)c2c(N)ncnc21
Summary of the method: as §1

quisinostat = compound: Cn1cc(CNCC2CCN(c3ncc(C(=O)NO)cn3)CC2)c2ccccc21 [quisinostat]
Summary of the method: as §1

tipifarnib = compound: Cn1cncc1[C@@](N)(c1ccc(Cl)cc1)c1ccc2c(c1)c(-c1cccc(Cl)c1)cc(=O)n2C [tipifarnib]
Summary of the method: as §1

[4] = compound: NC(=O)Nc1cc(-c2cccc(F)c2)sc1C(=O)N[C@H]1CCCNC1
Summary of the method: as §1

[5] = compound: NC(=O)c1cnc(N[C@@H]2CCCC[C@@H]2N)nc1Nc1cccc(-n2nccn2)c1
Summary of the method: as §1

[6] = compound: NC1(c2ccc(-c3nc4ccn5c(=O)[nH]nc5c4cc3-c3ccccc3)cc2)CCC1
Summary of the method: as §1

[7] = compound: NCC(=O)Nc1ccc(-n2nc(C(F)(F)F)cc2-c2ccc3c(ccc4ccccc43)c2)cc1
Summary of the method: as §1

vorinostat = compound: O=C(CCCCCCC(=O)Nc1ccccc1)NO [vorinostat]
Summary of the method: as §1

silmitasertib = compound: O=C(O)c1ccc2c(c1)nc(Nc1cccc(Cl)c1)c1ccncc12 [silmitasertib]
Summary of the method: as §1

[8] = compound: O=C1NC(=O)C(c2cnc3ccccn23)=C1c1cn2c3c(cc(F)cc13)CN(C(=O)N1CCCCC1)CC2
Summary of the method: as §1

entospletinib = compound: c1cn2cc(-c3ccc4cn[nH]c4c3)nc(Nc3ccc(N4CCOCC4)cc3)c2n1 [entospletinib]
Summary of the method: as §1

Measured: log2 fold change

WASH2P (UniProt Q6VEQ5)
inactive: nilotinib 0.062 | [1] -0.015 | dasatinib 0.012 | [2] 0.037 | [3] 0.045 | quisinostat 0.013 | tipifarnib -0.042 | [4] -0.005 | [5] 0.037 | [6] -0.001 | [7] -0.035 | vorinostat 0.067 | silmitasertib 0.027 | [8] -0.014 | entospletinib 0.014

WDR18 (UniProt Q9BV38)
inactive: nilotinib -0.012 | [1] 0.063 | dasatinib 0.044 | [2] 0.04 | [3] 0.002 | quisinostat -0.015 | tipifarnib -0.028 | [4] 0.004 | [5] 0.022 | [6] 0.047 | [7] 0.021 | vorinostat -0.036 | silmitasertib 0.013 | [8] -0.011 | entospletinib -0.008

WASF2 (UniProt Q9Y6W5)
inactive: nilotinib -0.024 | [1] 0.046 | dasatinib -0.019 | [2] 0.029 | [3] 0.028 | quisinostat 0.044 | tipifarnib 0.007 | [4] 0.005 | [5] 0.012 | [6] 0.039 | [7] 0.002 | vorinostat 0.062 | silmitasertib -0.013 | [8] -0.022 | entospletinib -0.004

VWA8 (UniProt A3KMH1)
inactive: nilotinib -0.088 | [1] 0.246 | dasatinib -0.037 | [2] 0.294 | [3] 0.016 | quisinostat 0.035 | tipifarnib -0.307 | [4] 0.013 | [5] -0.077 | [6] -0.06 | [7] -0.117 | vorinostat -0.529 | silmitasertib 0.026 | [8] -0.058 | entospletinib 0.039

WAPL isoform 3 (UniProt Q7Z5K2)
inactive: nilotinib 0.002 | [1] 0.04 | dasatinib 0.017 | [2] 0.015 | [3] -0.004 | quisinostat -0.104 | tipifarnib -0.002 | [4] 0.017 | [5] 0.009 | [6] 0.02 | [7] 0.001 | vorinostat -0.163 | silmitasertib -0.028 | [8] -0.038 | entospletinib -0.013

WARS (UniProt P23381)
inactive: nilotinib 0.012 | [1] -0.013 | dasatinib 0.044 | [2] 0.016 | [3] -0.03 | quisinostat 0.029 | tipifarnib 0.054 | [4] -0.003 | [5] -0.043 | [6] 0.026 | [7] 0.004 | vorinostat 0.141 | silmitasertib -0.023 | [8] 0.058 | entospletinib 0.014

WDR24 (UniProt Q96S15)
inactive: nilotinib 0.124 | [1] -0.09 | dasatinib -0.072 | [2] 0.05 | [3] -0.022 | quisinostat -0.013 | tipifarnib -0.096 | [4] 0.038 | [5] 0.04 | [6] -0.002 | [7] 0.041 | vorinostat -0.202 | silmitasertib 0.134 | [8] 0.032 | entospletinib 0.022

Two neighbouring records from above, quoted:
WASH2P (UniProt Q6VEQ5)
inactive: nilotinib 0.062 | [1] -0.015 | dasatinib 0.012 | [2] 0.037 | [3] 0.045 | quisinostat 0.013 | tipifarnib -0.042 | [4] -0.005 | [5] 0.037 | [6] -0.001 | [7] -0.035 | vorinostat 0.067 | silmitasertib 0.027 | [8] -0.014 | entospletinib 0.014

WDR18 (UniProt Q9BV38)
inactive: nilotinib -0.012 | [1] 0.063 | dasatinib 0.044 | [2] 0.04 | [3] 0.002 | quisinostat -0.015 | tipifarnib -0.028 | [4] 0.004 | [5] 0.022 | [6] 0.047 | [7] 0.021 | vorinostat -0.036 | silmitasertib 0.013 | [8] -0.011 | entospletinib -0.008

(continued)

WDR81 (UniProt Q562E7)
inactive: nilotinib 0 | [1] 0.024 | dasatinib -0.028 | [2] -0.007 | [3] 0.008 | quisinostat 0.003 | tipifarnib -0.015 | [4] 0.051 | [5] -0.013 | [6] 0.002 | [7] 0.11 | vorinostat -0.09 | silmitasertib -0.024 | [8] -0.078 | entospletinib -0.032

WAC (UniProt Q9BTA9)
inactive: nilotinib -0.012 | [1] -0.001 | dasatinib -0.038 | [2] -0.019 | [3] 0.002 | quisinostat -0.029 | tipifarnib 0 | [4] 0.019 | [5] -0.01 | [6] 0.004 | [7] 0.011 | silmitasertib -0.031 | [8] -0.014 | entospletinib -0.046
active: vorinostat -0.309

WDR44 (UniProt Q5JSH3)
inactive: nilotinib -0.01 | [1] -0.012 | dasatinib 0.012 | [2] 0.001 | [3] -0.017 | quisinostat -0.031 | tipifarnib 0.009 | [4] -0.01 | [5] -0.011 | [6] -0.035 | [7] 0.006 | vorinostat 0.104 | silmitasertib -0.035 | [8] -0.021 | entospletinib 0.003
